Reference: patent publication US20220356245A1
Results are given in words; binding and its absence hold for the method and conditions named. Some binding calls cover weakened binding; strength is not graded here.

Amino acid sequences for entries named in this document (tags omitted). Residues count along the entry.
UniProt Q61735, residues 19-303: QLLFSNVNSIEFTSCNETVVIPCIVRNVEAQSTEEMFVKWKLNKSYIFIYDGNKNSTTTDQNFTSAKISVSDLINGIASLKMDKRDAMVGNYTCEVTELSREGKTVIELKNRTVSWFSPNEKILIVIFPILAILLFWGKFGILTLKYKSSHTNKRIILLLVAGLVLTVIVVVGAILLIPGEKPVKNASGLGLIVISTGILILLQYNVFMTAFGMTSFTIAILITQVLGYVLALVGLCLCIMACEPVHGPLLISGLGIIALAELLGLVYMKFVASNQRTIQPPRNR

Assays:
[1] = target: cynomolgus monkey CD47 expressed on CHO cells (cynomolgus monkey); experiment: summary of in vitro characterization
[2] = target: cynomolgus monkey CD47 expressed on CHO cells (cynomolgus monkey); experiment: flow cytometry, CD47-transfected CHO cells
[3] = target: mouse CD47 (mCD47) expressed on CHO cells (mouse) (UniProt Q61735); experiment: summary of in vitro characterization
[4] = target: mouse CD47 (mCD47) expressed on CHO cells (mouse) (UniProt Q61735); experiment: flow cytometry, CD47-transfected CHO cells

B1: Candidate 7 (VT008-AL5-10G7-10K7), mouse IgG (antibody, V domains shown)
VH: QVQLQQPGAELVMPGSSVKLSCKTSGYTFTKYWMHWVKRRPGQGLEWIGEINPSDTYTNYNQKFKGKSTLTVDKSSSTAYMQLSSLTSEDSAVYFCARVATMVARGFAYWGQGTLVTVSA
VL: DIVMTQSHKFMSTSVGDRVSITCKASQDVSGAVVWYQEKPGQSPNLLIYLATYRYTGVPDRFTGSGSGTDFTLTIRSVQAEDMAVYYCQQYYSIPWTFGGGTKLEIK
binding [1]: binds | binding [2]: binds

B2: Candidate 15 (VT008-AL6-18G1-18K21), mouse IgG (antibody, V domains shown)
VH: QVQLQQPGAELVKPGTSVKLSCKASGYTFINYWIHWVKQRPGRGLEWIGRIDPNTVDAKYNEKFKSKATLTVDKPSSIAYMQLSSLTSEDSAVYYCSRGGYTMDYWGQGTSVTVSS
VL: DVVMTQTPLSLPVSLGDQASISCRSSQSLVHSNGNTYLHWYLQKPGQSPTLLIYKVSNRFSGVPDRFSGSGSGTDFTLKISRVEAEDLGIYFCFQSTHVPWTFGGGTKLEIK
binding [3]: binds | binding [1]: binds | binding [4]: binds | binding [2]: binds

B3: Candidate 22 (VL008-AL13-8G5-8K3), mouse IgG (antibody, V domains shown)
VH: QVQLQQPGAELVKPGASVKLSCKASGYTFTTYWMHWVKQRPGQGLEWIGMIHPNSGTTNYNEKFKSKATLTVDKSSSSTYMQLSSLTSEDSAVYYCTRSHYYDGHFSYWGQGTLVTVSA
VL: DIVMSQSPSSLAVSAGEKVTMSCKSSQSLLNSRTRKNYLAWYQQKPGQSPKLLIYWASTRESGVPDRFTGSGSGTDFTLTISSVQAEDLAVYYCKQSYNLWTFGGGTRLEIK
binding [1]: binds | binding [2]: binds

B4: Candidate 26 (VT008-AL6-10G3-10K1), mouse IgG (antibody, V domains shown)
VH: QVQLQQPGPELVKPGASVKLSCKASGYTFTNYWIHWLNQRPGRGLEWIGRIDPNSGGTKYNEKFKSKAILTVDKSSSTTYMQLSSLTSEDSAVYYCARGGYTMDYWGQGTSVTVSS
VL: DVVMPQTPLSLPVSLGDHASISCRSSQSLLHSNGNTYLHWYLQKPGQSPKLLIYKVSYRFSGVPDRISGSGSGTDFTLKISRVEAEDLGVYFCFQSTHVPWTFGGGTKLEIK
binding [3]: binds | binding [1]: binds | binding [4]: binds | binding [2]: binds

B5: Candidate 29 (VT008-AL6-20G7-20K7), mouse IgG (antibody, V domains shown)
VH: QVQLQQSGTELAKPGASVKLSCKASGYTFINYWIYWVKERPGQVLEWIGYINPRSDDTKYNQKFRDRATLTADKSSTTAYLQLNSLTNDDSALYYCARGGFTMDFWGQGTSVTVSS
VL: DVVMTQTPLSLPVSLGDQASISCRSSQSLLHSNGNTYLHWYLQKPGQSPNLLIYKVSYRFSGVPDRFSGSGSGTDFTLKISRVEAEDLGVYFCSQGTHVPYTFGGGTKLEIK
binding [4]: binds | binding [2]: binds
